Source: publication PMC9569790, “From Solution Studies of Pharmaceuticals (Aspirin and Related Compounds) to the Thermodynamics of Aspirin-β-Cyclodextrin Interaction in water and N,N-Dimethylformamide” (International Journal of Molecular Sciences, 2022)
Where two headings read alike, the source gives them in different places. Marks after values point to notes of the source that are not given here.

Tests used:
[1] = Interaction of acetylsalicylic acid with β-cyclodextrin in water (titration calorimetry); format: binding; settings: 298 K
[2] = Interaction of acetylsalicylic acid with β-cyclodextrin in DMF (titration calorimetry); format: binding; settings: nonionized guest, 298 K
[3] = set-up: method as in PMID 16509753; settings: water, 298 K, cited from earlier work

## CC(=O)Oc1ccccc1C(=O)O [acetylsalicylic acid, reference compound]
[1]; pH 1.75, nonionized guest
  ΔassH^0: 0 ^b kJ mol^−1
  ΔassS^0: 52 ^b JK^−1 mol^−1
[1]; pH 6.00, ionized guest
  ΔcH^0: 0^b kJ mol^−1
  ΔcS^0: 33 ^b JK^−1 mol^−1
[2]
  ΔassG^0: −26.6 ^b kJ mol^−1
  ΔassH^0: 0.15 ± 0.03 ^b kJ mol^−1
  ΔassS^0: 89 ^b JK^−1 mol^−1
[3]; pH 1.75, nonionized guest, calculated from Kass of ref 15
  ΔassG^0: −15.64 ^a kJ mol^−1
[3]; pH 6.00, ionized guest, calculated from Ks of ref 15
  ΔcG^0: −9.76 ^a kJ mol^−1
